This is an account of results in publication PMC8861638, “Human iPSC-derived renal organoids engineered to report oxidative stress can predict drug-induced toxicity” (iScience, 2022).

This series relates to hiPSC-derived flat renal organoids. As to the kind of experiment: RNA-seq of wild-type hiPSC-derived flat renal organoids treated with gentamicin for 24 h. The series is classed as cell-based, human. The source says:
Although some transporters were more strongly expressed in the 3D organoids, the presence of Megalin and Cubulin in the flat organoids, combined with their increased suitability for high-throughput analyses, led us to adopt this form of organoid to identify a potential reporter for toxic insults in renal organoids. hiPSCs were differentiated into flat renal organoids, and their renal identity was verified by confirming expression of common renal markers (as described above and in the Methods section). We treated these flat renal organoids for 24 h with the known nephrotoxicant, gentamicin ([Regec et al., 1986], [1989]; [El Mouedden et al., 2000]), at 1 or 4 mg/mL, leaving some as vehicle-only controls (3 separate organoids per condition). Gentamicin was chosen based on the presence of Megalin and Cubulin in these organoids because they are the main endocytic receptors involved in gentamicin uptake into proximal tubule cells ([Schmitz et al., 2002]) and would be expected to be necessary for a realistic toxic response. The transcriptomes of renal organoids in these three conditions were compared using RNA-seq analyses.
In contrast, treatment with 4 mg/mL gentamicin caused the expression of 2,221 genes to increase and that of 1770 to decrease. Among the transcripts showing increased expression was KIM-1 (log fold-change: 1.67; FDR-corrected p = 0.03), a biomarker commonly associated with renal tubular necrosis (Table S1).
RNA-seq, and trimming, filtering and normalization of raw data, was performed by Edinburgh Genomics. 1 μg of total RNA/sample was used for sequencing library preparation using an Illumina TruSeq stranded mRNA kit. Sequencing was performed using a Novaseq S1 50 Paired-end run to produce 50–64 million read-pairs per sample. Reads were trimmed using Cutadapt and were aligned to the Homo sapiens reference genome (GRCh38; from Ensembl) using STAR. Standard GTF-format annotation for the reference genome (annotation version 84) was used. Reads were assigned to features of type ‘exon’ in the input annotation grouped by gene_id in the reference genome using Feature Counts. The raw count data were filtered to remove very low-expressed genes (genes consisting predominantly of near-zero counts), filtering was performed on counts per million to avoid artefacts due to library depth. Reads were normalised using the weighted trimmed mean of M-values method. Differential analysis (comparing the low-treated group to the control group, or the high-treated group to the control group) was carried out using edgeR4. Fold-changes were estimated as per the default behavior of edgeR, to avoid artefacts which occur with empirical calculation. Statistical assessment of differential expression was carried out with the quasi-likelihood (QL) F-test.
We performed a PANTHER Over-representation Test using the annotation version GO Ontology database. For the functional classification, the same list of genes was used in a Panther functional classification analysis selecting the ontology Biological Process and the ontology Molecular Function.

Structures are written as SMILES.

As to `CNC(C)C1CCC(N)C(OC2C(N)CC(N)C(OC3OCC(C)(O)C(NC)C3O)C2O)O1` (stereo not drawn) [Gentamicin], where the note is “4 mg/mL”, the “Number of genes with decreased expression” value worked out at 1770 and the “Number of genes with increased expression” value is 2,221. For the same molecule, where the note is “4 mg/mL vs control”, the “Log2FC ATF3” value is 3.08, the “Log2FC FOS” value amounted to 3.871, the “Log2FC HRK” value was 3.328 and the “Log2FC HSPA1A” value is 2.663. Moreover, where the note is “4 mg/mL vs control”, the “Log2FC HSPA1B” value was found to be 2.887, the “Log2FC HSPA6” value amounted to 5.206, the “Log2FC JDP2” value is reported as 1.882 and the “Log2FC JUN” value is 1.373. In addition, for the setting “4 mg/mL vs control”, the “Log2FC LTA” value is 3.873 and the “log-fold increase TRIB3” value was determined as 2.14.
